{"source": "paper PMC9202211", "target": "T1, Gamma-aminobutyric acid type A receptor subunit delta (human (endogenous in Eca-109)) (UniProt O14764)", "T1 sequence": "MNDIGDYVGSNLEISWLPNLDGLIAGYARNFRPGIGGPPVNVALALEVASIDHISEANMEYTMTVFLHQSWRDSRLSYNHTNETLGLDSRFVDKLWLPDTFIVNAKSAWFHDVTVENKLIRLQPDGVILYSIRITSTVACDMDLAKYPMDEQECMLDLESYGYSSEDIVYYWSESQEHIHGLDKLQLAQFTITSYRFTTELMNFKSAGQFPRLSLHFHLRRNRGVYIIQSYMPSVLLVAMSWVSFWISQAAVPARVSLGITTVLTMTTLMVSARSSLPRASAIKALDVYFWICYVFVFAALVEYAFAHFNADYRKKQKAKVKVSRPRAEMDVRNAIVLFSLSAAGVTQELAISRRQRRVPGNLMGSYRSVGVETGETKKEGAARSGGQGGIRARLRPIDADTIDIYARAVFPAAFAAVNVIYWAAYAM", "experiment": "co-IP; 1.0 mg total protein of Eca-109 cell lysate incubated with anti-GABRD at 4 °C for 2 h; protein A/G beads; western blot for DEPDC1B", "note": "No constants are given. Whether binding was seen depends on the method and setting. Binding seen in cells or lysates may run through a third protein. Some results given as binding are weak or reduced against the parent protein; the word gives no strength."}
{"substance": "…, EGL-10, … (DEP) domain-containing 1B (from UniProt Q8WUY9 1-529)", "values": [{"measurement": "binding", "value": "binds"}]}
